PubChem BioAssay AID686938, Drosophila RNAi Screening Center, 2013

Aim: 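Looking for CRAC channel components and the factors controlling them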 (primary screen)
Cell system: Drosophila S2R+ cells
Reagents: long dsRNA against Drosophila genes, about 0.25 µg dsRNA per well, roughly 10,000 cells
Duration: 5 days of knock-down before the calcium assay
Conditions: thapsigargin (SERCA pump blocker) to empty calcium stores; entry signal taken 4 min after adding it
Measured: 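Per-well fluo-4 fluorescence in two replicates, unnormalised, measured in resting cells and 4 min after store depletion by the SERCA blocker thapsigargin; ratio of the two present in few wells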
Reading the numbers: calcium entry signal: higher = stronger calcium signal after store depletion; resting calcium signal: higher = higher resting calcium signal
Rule for the call: 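Hit if the duplicate-averaged plate z-score for entry over resting signal is under −3; wells with weak total dye signal (Fmax z < −2) or more than 5 off-targets removed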
Calls: active = strongly reduced calcium entry; inactive = no strong reduction
In all, the deposit lists about 23,000 reagents; this is a random part of those with a known target gene and a result. Of all reagents, 75 (0.33%) got an active call. 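Raw plate signals without normalisation; calls rest on plate z-scores that were not deposited; ratio present for only 364 wells.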 A number with no mark means an inactive call. A plus sign joins genes that one reagent is predicted to hit. Not stated in the record: the dose of the treatment.

With knock-down of snz (snazarus) [SID104197761], the screen gave calcium entry signal, replicate 1 (fluorescence units) = 2.01e7; calcium entry signal, replicate 2 (fluorescence units) = 3.31e7; resting calcium signal, replicate 1 (fluorescence units) = 1.06e7; resting calcium signal, replicate 2 (fluorescence units) = 1.44e7. With knock-down of CG11362 [SID104183898], the record shows calcium entry signal, replicate 1 (fluorescence units) = 3.95e7; calcium entry signal, replicate 2 (fluorescence units) = 3.90e7; resting calcium signal, replicate 1 (fluorescence units) = 2.07e7; resting calcium signal, replicate 2 (fluorescence units) = 1.79e7. For CG11362 [SID104201616], the values are calcium entry signal, replicate 1 (fluorescence units) = 3.46e7; calcium entry signal, replicate 2 (fluorescence units) = 5.64e7; resting calcium signal, replicate 1 (fluorescence units) = 1.60e7; resting calcium signal, replicate 2 (fluorescence units) = 2.83e7. After knock-down of Ssb-c31a (Single stranded-binding protein c31A) [SID104183235], the record shows calcium entry signal, replicate 1 (fluorescence units) = 3.84e7; calcium entry signal, replicate 2 (fluorescence units) = 6.15e7; resting calcium signal, replicate 1 (fluorescence units) = 1.72e7; resting calcium signal, replicate 2 (fluorescence units) = 2.52e7. After knock-down of Ehbp1 (Eps15 homology domain containing protein-binding protein 1) [SID104186353], the record shows calcium entry signal, replicate 1 (fluorescence units) = 4.56e7; calcium entry signal, replicate 2 (fluorescence units) = 4.08e7; resting calcium signal, replicate 1 (fluorescence units) = 2.10e7; resting calcium signal, replicate 2 (fluorescence units) = 1.86e7. fng (fringe) [SID104191247] scored calcium entry signal, replicate 1 (fluorescence units) = 5.69e7; calcium entry signal, replicate 2 (fluorescence units) = 3.69e7; resting calcium signal, replicate 1 (fluorescence units) = 3.17e7; resting calcium signal, replicate 2 (fluorescence units) = 1.86e7.

fng (fringe) [SID104191679] showed calcium entry signal, replicate 1 (fluorescence units) = 4.11e7; calcium entry signal, replicate 2 (fluorescence units) = 4.43e7; resting calcium signal, replicate 1 (fluorescence units) = 1.87e7; resting calcium signal, replicate 2 (fluorescence units) = 3.13e7. Silencing of fng (fringe) [SID104201552] resulted in: calcium entry signal, replicate 1 (fluorescence units) = 3.00e7; calcium entry signal, replicate 2 (fluorescence units) = 5.36e7; resting calcium signal, replicate 1 (fluorescence units) = 1.48e7; resting calcium signal, replicate 2 (fluorescence units) = 2.79e7. Silencing of CG9222 [SID104182950] came out at: calcium entry signal, replicate 1 (fluorescence units) = 4.22e7; calcium entry signal, replicate 2 (fluorescence units) = 3.84e7; resting calcium signal, replicate 1 (fluorescence units) = 1.91e7; resting calcium signal, replicate 2 (fluorescence units) = 1.74e7. With knock-down of Mctp (Multiple C2 domain and transmembrane region protein) [SID104186302] the results were calcium entry signal, replicate 1 (fluorescence units) = 4.46e7; calcium entry signal, replicate 2 (fluorescence units) = 5.55e7; resting calcium signal, replicate 1 (fluorescence units) = 2.02e7; resting calcium signal, replicate 2 (fluorescence units) = 2.50e7. Silencing of Mctp (Multiple C2 domain and transmembrane region protein) [SID104202255] resulted in: calcium entry signal, replicate 1 (fluorescence units) = 3.28e7; calcium entry signal, replicate 2 (fluorescence units) = 4.26e7; resting calcium signal, replicate 1 (fluorescence units) = 1.94e7; resting calcium signal, replicate 2 (fluorescence units) = 1.80e7. For wal (walrus) [SID104187509], the values are calcium entry signal, replicate 1 (fluorescence units) = 2.73e7; calcium entry signal, replicate 2 (fluorescence units) = 2.95e7; resting calcium signal, replicate 1 (fluorescence units) = 1.31e7; resting calcium signal, replicate 2 (fluorescence units) = 1.44e7.

Reprinted from above (2 entries):
fng (fringe) [SID104191247] → calcium entry signal, replicate 1 (fluorescence units): 5.69e7; calcium entry signal, replicate 2 (fluorescence units): 3.69e7; resting calcium signal, replicate 1 (fluorescence units): 3.17e7; resting calcium signal, replicate 2 (fluorescence units): 1.86e7
fng (fringe) [SID104191679] → calcium entry signal, replicate 1 (fluorescence units): 4.11e7; calcium entry signal, replicate 2 (fluorescence units): 4.43e7; resting calcium signal, replicate 1 (fluorescence units): 1.87e7; resting calcium signal, replicate 2 (fluorescence units): 3.13e7

The listing continues:
Against Aldh (Aldehyde dehydrogenase) [SID104182509], the values are calcium entry signal, replicate 1 (fluorescence units) = 3.62e7; calcium entry signal, replicate 2 (fluorescence units) = 5.52e7; resting calcium signal, replicate 1 (fluorescence units) = 1.73e7; resting calcium signal, replicate 2 (fluorescence units) = 2.34e7. Depletion of Sems (Seminase) [SID104191418] gave: calcium entry signal, replicate 1 (fluorescence units) = 3.67e7; calcium entry signal, replicate 2 (fluorescence units) = 5.33e7; resting calcium signal, replicate 1 (fluorescence units) = 1.67e7; resting calcium signal, replicate 2 (fluorescence units) = 2.26e7. For asl (asterless) [SID104192111], the values are calcium entry signal, replicate 1 (fluorescence units) = 3.83e7; calcium entry signal, replicate 2 (fluorescence units) = 4.03e7; resting calcium signal, replicate 1 (fluorescence units) = 1.55e7; resting calcium signal, replicate 2 (fluorescence units) = 1.89e7. With knock-down of Unc-115b + p24-2 + Unc-115a [SID104196294], the record shows calcium entry signal, replicate 1 (fluorescence units) = 3.09e7; calcium entry signal, replicate 2 (fluorescence units) = 2.96e7; resting calcium signal, replicate 1 (fluorescence units) = 1.50e7; resting calcium signal, replicate 2 (fluorescence units) = 1.50e7. After knock-down of nAChRbeta1 (nicotinic Acetylcholine Receptor beta1) [SID104187889], the screen gave calcium entry signal, replicate 1 (fluorescence units) = 4.32e7; calcium entry signal, replicate 2 (fluorescence units) = 4.36e7; resting calcium signal, replicate 1 (fluorescence units) = 2.42e7; resting calcium signal, replicate 2 (fluorescence units) = 1.97e7. nAChRbeta1 (nicotinic Acetylcholine Receptor beta1) [SID104188520] gave calcium entry signal, replicate 1 (fluorescence units) = 5.51e7; calcium entry signal, replicate 2 (fluorescence units) = 4.93e7; resting calcium signal, replicate 1 (fluorescence units) = 3.70e7; resting calcium signal, replicate 2 (fluorescence units) = 1.63e7.

igl (igloo) [SID104187423] showed calcium entry signal, replicate 1 (fluorescence units) = 2.01e7; calcium entry signal, replicate 2 (fluorescence units) = 2.21e7; resting calcium signal, replicate 1 (fluorescence units) = 9.78e6; resting calcium signal, replicate 2 (fluorescence units) = 1.12e7. Fatp2 (Fatty acid transport protein 2) [SID104183763] scored calcium entry signal, replicate 1 (fluorescence units) = 3.35e7; calcium entry signal, replicate 2 (fluorescence units) = 3.44e7; resting calcium signal, replicate 1 (fluorescence units) = 1.63e7; resting calcium signal, replicate 2 (fluorescence units) = 1.68e7. Knock-down of Fatp2 (Fatty acid transport protein 2) [SID104183970] gave: calcium entry signal, replicate 1 (fluorescence units) = 4.23e7; calcium entry signal, replicate 2 (fluorescence units) = 4.91e7; resting calcium signal, replicate 1 (fluorescence units) = 2.17e7; resting calcium signal, replicate 2 (fluorescence units) = 2.29e7. With knock-down of Fatp2 (Fatty acid transport protein 2) [SID104184122], the record shows calcium entry signal, replicate 1 (fluorescence units) = 4.67e7; calcium entry signal, replicate 2 (fluorescence units) = 4.81e7; resting calcium signal, replicate 1 (fluorescence units) = 2.20e7; resting calcium signal, replicate 2 (fluorescence units) = 2.39e7.
